# The entries are a selection whose mix differs from that of the whole data set. For part of these data: At the low end of the ranking the order means little. The list shows a part of the results. For part of these data: The source does not settle which construct or isoform was used.
# The chains behind the UniProt entries cited, without tags or fusion partners. Where a name states a change or a piece, a line headed by the entry shows the natural chain unless it says otherwise.
# UniProt Q00613: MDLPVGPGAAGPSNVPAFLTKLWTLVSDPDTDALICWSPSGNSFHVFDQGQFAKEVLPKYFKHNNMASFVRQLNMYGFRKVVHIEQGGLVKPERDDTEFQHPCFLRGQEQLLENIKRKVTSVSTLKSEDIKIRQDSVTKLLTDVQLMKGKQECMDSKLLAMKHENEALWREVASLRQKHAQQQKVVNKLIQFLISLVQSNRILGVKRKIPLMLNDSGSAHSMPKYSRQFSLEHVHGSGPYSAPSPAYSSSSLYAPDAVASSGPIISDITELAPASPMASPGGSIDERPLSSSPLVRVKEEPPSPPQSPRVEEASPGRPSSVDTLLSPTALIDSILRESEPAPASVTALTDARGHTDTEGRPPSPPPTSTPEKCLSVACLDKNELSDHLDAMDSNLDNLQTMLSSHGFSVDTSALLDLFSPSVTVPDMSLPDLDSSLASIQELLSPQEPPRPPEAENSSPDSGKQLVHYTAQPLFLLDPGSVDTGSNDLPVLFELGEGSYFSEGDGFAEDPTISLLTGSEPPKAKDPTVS
# Experiments:
# HSF1 = HSF1 (UniProt Q00613); assay: DAPPL (digital affinity profiling via proximity ligation, sequencing); settings: 10 mM Tris-HCl pH 7.5, 50 mM NaCl, 1 mM DTT, 4% glycerol, room temperature, 30 min; GST-TFs on glutathione beads, 16-mer random dsDNA library, 0.1% …; high values mean tight binding; double strand, one strand shown; scale: fold enrichment (6-mer frequency, TF over GST control)
# ELF2 = target: T1, ELF2 (UniProt Q15723); assay: as above; settings: 10 mM Tris-HCl pH 7.5, 50 mM NaCl, 1 mM DTT, 4% glycerol, room temperature, 30 min; GST-TFs on glutathione beads, 16-mer random dsDNA library, 0.1% …; high values mean tight binding; double strand, one strand shown; scale: fold enrichment (6-mer frequency, TF over GST control)
# T1 sequence: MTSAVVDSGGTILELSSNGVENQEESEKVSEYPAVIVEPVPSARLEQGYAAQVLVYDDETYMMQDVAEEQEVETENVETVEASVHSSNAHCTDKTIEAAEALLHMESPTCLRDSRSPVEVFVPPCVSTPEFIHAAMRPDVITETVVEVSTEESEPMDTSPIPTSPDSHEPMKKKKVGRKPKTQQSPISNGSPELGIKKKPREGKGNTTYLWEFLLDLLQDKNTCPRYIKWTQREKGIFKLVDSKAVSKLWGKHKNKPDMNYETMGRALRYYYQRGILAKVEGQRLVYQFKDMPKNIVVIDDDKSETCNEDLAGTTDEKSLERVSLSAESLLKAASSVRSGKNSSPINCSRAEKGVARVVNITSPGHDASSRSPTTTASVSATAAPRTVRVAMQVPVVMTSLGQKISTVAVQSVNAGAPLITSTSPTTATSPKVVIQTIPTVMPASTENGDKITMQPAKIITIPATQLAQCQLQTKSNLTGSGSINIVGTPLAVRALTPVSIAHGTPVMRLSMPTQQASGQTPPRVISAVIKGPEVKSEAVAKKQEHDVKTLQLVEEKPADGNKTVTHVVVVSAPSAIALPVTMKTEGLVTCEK
Sequence,binding signal (HSF1),binding signal (ELF2)
CAGAGG,0.594,0.599
ACGGGC,0.721,0.799
GTGAAC,0.676,0.784
GGCGCT,0.609,0.684
GGGCGT,0.401,0.467
AGCCGG,0.423,0.667
GAAGGG,0.765,0.852
TGCCAG,0.855,0.663
GTGAAA,0.734,0.725
AGACGG,0.342,0.379
AACGTG,0.339,0.362
GTGAAG,0.543,0.574
GGGCCC,0.585,0.745
GGGGAT,0.828,0.632
GACACC,0.638,0.884
GGTACG,0.698,0.819
TCGTGT,0.749,0.718
AGTCGA,0.45,0.391
GTGGCG,0.581,0.801
GCCAGC,0.666,0.722
GGGGGG,0.412,0.546
TAGCCG,0.805,0.881
TCAGAA,1.26,0.892
TGTCGA,0.908,0.8

Sequence,binding signal (HSF1),binding signal (ELF2)
GAACCG,0.562,0.831
AGGTAG,0.585,0.665
CCGTGG,0.381,0.406
AACGAG,0.847,0.779
TAGACC,0.911,0.83
CGCAGT,0.644,0.728
CAGACC,0.673,0.773
CGTGAA,0.546,0.442
ACGTGT,0.561,0.61
GAGTCA,0.255,0.272
ACGTAG,0.681,0.738
GAGGAA,0.605,0.883
AGGTTG,0.642,0.75
CGTAAG,0.84,0.706
AAGGGG,0.812,0.904
TGACGT,0.703,0.831
CGGAGC,0.347,0.371
GACGTC,0.619,0.841
CAGTTA,0.684,0.699
GTTGGG,0.524,0.659
GGCGGA,0.227,0.46
GGCTGG,0.701,0.684
ATCGTA,0.908,0.814
CGAGTG,0.836,0.756

# Quoted at random: five entries already listed.
Sequence,binding signal (HSF1),binding signal (ELF2)
GTTGGG,0.524,0.659
ACGTAG,0.681,0.738
CAGACC,0.673,0.773
GAGGAA,0.605,0.883
CGGAGC,0.347,0.371

# More records follow:

Sequence,binding signal (HSF1),binding signal (ELF2)
GTGAAT,0.812,0.825
TCGGAT,0.698,0.492
GACGAT,0.952,0.844
GAGACG,0.292,0.309
AGGGCC,0.771,0.835
GGCGTA,0.553,0.642
CCAGTG,0.457,0.425
TCAGAG,0.755,0.693
ACAGGT,0.644,0.726
GGTGCA,0.651,0.869
GCGCAT,0.88,0.839
TGTGAA,0.729,0.818
GGCGAC,0.633,0.703
CAGTTT,0.814,0.882
AGTTGT,0.645,0.822
CCGAGA,0.952,0.582
GGGCAC,0.564,0.745
GGTGAA,0.694,0.736
TAGACG,0.91,0.73
TCAGGC,0.693,0.71
AAGAGC,0.865,0.874
AGTCAA,0.538,0.631
ACCAGC,0.831,0.789
CAGTGC,0.661,0.719

Sequence,binding signal (HSF1),binding signal (ELF2)
GTCAAT,0.702,0.797
AGGACA,0.7,0.834
TTAGAC,1.1,0.81
GCGGTA,0.598,0.762
GGCAAC,0.691,0.897
GGACTG,0.58,0.681
CCGAGT,0.89,0.902
GATTGG,0.824,0.815
GGTTAG,0.707,0.726
ACGTGG,0.55,0.567
GGGCAA,0.732,0.861
GGGACA,0.516,0.631
TGAGCA,0.714,0.85
GGGAAG,0.672,0.984
GAGACA,0.347,0.357
CGCCAG,0.646,0.662
TACCGT,0.618,0.658
ATGTCG,0.525,0.616
AGAGAC,0.504,0.493
GCCGCG,0.672,0.757
TTCGTG,1.1,0.872
TATCGG,0.905,0.832
TAAGTG,0.932,0.766
GTGAGA,0.283,0.296

Sequence,binding signal (HSF1),binding signal (ELF2)
GACAGT,0.39,0.433
GTGCGG,0.541,0.713
GCGAGT,0.523,0.533
TAGGTG,0.819,0.805
GTGTGA,0.451,0.544
AGCGTG,0.339,0.381
CACGGG,0.7,0.788
AGAGCC,0.644,0.692
TGTGGG,0.719,0.781
CAACGT,0.735,0.841
GGTGTA,0.689,0.817
GCATCG,0.718,0.765
CGGGTT,0.682,1.06
GTCCGA,0.743,0.812
GAGATG,0.72,0.642
GGTAGC,0.623,0.817
GCAACG,0.79,0.949
AAGGCG,0.577,0.7
AGCGGT,0.601,0.735
AGGCTG,0.653,0.651
TGGAGA,0.582,0.395
GCACAG,0.593,0.679
ACGCAT,0.656,0.76
GACCAC,0.663,0.825

# Reference: PMC7862700
